# Data as given in PubChem BioAssay AID720534 (National Center for Advancing Translational Sciences (NCATS), 2013).
# Hit rate of the full screen: of about 1,600 compounds, about 990 (62%) were called active. The set was probably picked from earlier hits. This list was built around the results that the source calls inconclusive (neither active nor inactive); the mix of calls is not that of the screen. Calls follow the shape of the dose curve; as a rule, active = well fitted inhibition curve with a large enough effect; inconclusive = small, poorly fitted or top-dose-only effect; inactive = no such curve, though single readings can be large or run the other way. Potencies beside an inconclusive call are fits to weak or partial responses and may not hold up.
# Experiment: qHTS for Inhibitors of TGF-b: Confirmation of Cherry Picks; also: nearly all actives have a fitted effect of over 65% in size
# Conditions: HepG2 CAGA-GFP TGF-b reporter, GFP fluorescence, 18 h, cells stimulated with TGF-beta, 500 pg/mL; series mostly up to 46.1 µM
# How it was run: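 %Activity came from corrected GFP fluorescence of TGF-beta-stimulated (500 pg/mL final, 18 h) HepG2 CAGA-GFP cells in 1% FBS, normalized to unstimulated wells and stimulated DMSO wells.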
# Potency is read from the fitted curve at half-maximal effect.
row,SMILES,Potency
1,NC(c1csc(NC(=O)Nc2cccc(C(F)(F)F)c2)n1)C1CCCCC1 (centres undefined),"inconclusive: 18.4 µM [inhibitor, single point]"
2,O=CNc1cc(-c2ccoc2)cn2c(-c3ccc(F)cc3)cnc12,"inconclusive: 29.1 µM [inhibitor, single point]"
3,OCC1OC(n2ccc3c(NO)ncnc32)C(O)C1O (centres undefined),active: 1.16 µM
4,CC(=O)c1ccc(Nc2nc(-c3ccccc3)nc3ccccc23)cc1,inactive
5,COc1cc(CNCCO)cc(Cl)c1OCc1ccccc1Cl,inactive
6,CC(=O)c1ccc(-c2cnc3c(NC=O)cc(-c4ccc(C(=O)N5CCOCC5)cc4)cn23)cc1,"inconclusive: 29.1 µM [inhibitor, single point]"
7,CN(CCc1ccccc1)C(=O)c1cccc(NC(=O)Cc2cccc([N+](=O)[O-])c2)c1,"inconclusive: 13 µM [inhibitor, partial curve]"
8,O=C(c1ccc2c(c1)OCO2)C1CCCN(Cc2ccc(OC(F)F)cc2)C1 (centres undefined),"inconclusive: 18.4 µM [inhibitor, partial curve]"
9,O=C1NC(Cc2ccc(O)cc2)c2nc3cc(F)c(F)cc3c(=O)n2-c2cc3ccccc3cc21 (centres undefined),"inconclusive: 29.1 µM [inhibitor, single point]"
10,CCN(CC)C(=O)[C@H]1C[C@H](CC(=O)NC/C=C(\C)CCC=C(C)C)C(=O)N2CCc3c([nH]c4cc(CCC(=O)N(C)C)ccc34)[C@]12C,active: 23.1 µM
11,CN1CCC[C@H]1CCNc1ccc2c(=O)c3ccccc3n(C)c2c1,"inconclusive: 29.1 µM [inhibitor, single point]"
12,Nc1ncnc2c1ncn2C1C=C(CO)C(O)C1O (centres undefined),"inconclusive: 11.6 µM [inhibitor, partial curve]"
13,COc1ccc(/C=C/C(=O)c2cc(F)ccc2OC(=O)c2ccccc2)cc1OC,"inconclusive: 23.1 µM [inhibitor, partial curve]"
14,CC(C)(C)OC(=O)N1CCC(NC(=O)c2[nH]cnc2C(=O)Nc2ccccc2)CC1,"inconclusive: 20.6 µM [inhibitor, single point]"
15,Cc1cc(C)c(OCC(=O)Nc2nc(-c3ccccn3)cs2)c(C)c1,"inconclusive: 23.1 µM [inhibitor, single point]"
16,O=C(NCCc1c[nH]c2ccccc12)OCCCCOC(=O)NCCc1c[nH]c2ccccc12,"inconclusive: 23.1 µM [inhibitor, single point]"
17,CC(=Nc1ccccc1)C1=C(O)C(Cc2ccccc2)NC1=O (centres undefined),"inconclusive: 1.3 µM [inhibitor, full curve]"
18,CCOc1ccc(S(=O)(=O)N2CCN(CC(O)COc3cccc([N+](=O)[O-])c3)CC2)cc1 (centres undefined),"inconclusive: 18.4 µM [inhibitor, single point]"
19,Cc1ccc(S(=O)(=O)/N=C2\C=C(Nc3ccc(O)cc3)C(=O)c3ccccc32)cc1,active: 1.3 µM
20,O=C(NCCCCCCNC(=O)c1ccccc1O)c1ccccc1O,"inconclusive: 20.6 µM [inhibitor, single point]"
21,COc1ccc(C(=O)Oc2cccc3cccnc23)cc1[N+](=O)[O-],inactive
22,CC(=O)Nc1ccc2nc(NC(=O)c3ccc([N+](=O)[O-])o3)sc2c1,active: 1.84 µM

row,SMILES,Potency
1,CC(=O)c1cccc(N=c2scc(-c3ccc(S(=O)(=O)N4CCOCC4)cc3)n2CCO)c1,inactive
2,CC(C)C[C@H](NC(=O)c1nc[nH]c1C(=O)N1CCN(c2ccccc2)CC1)C(=O)OC(C)(C)C,inactive
3,Cc1ccccc1NCc1ccc(O)c2ncccc12,"inconclusive: 20.6 µM [inhibitor, single point]"
4,Cc1ccc(COc2ccccc2-c2cc(C(=O)N/N=C/c3cccnc3)[nH]n2)cc1,"inconclusive: 29.1 µM [inhibitor, single point]"
5,Clc1nc(Cl)nc(N(c2ccccc2)c2ccccc2)n1,"inconclusive: 9.2 µM [inhibitor, partial curve]"
6,O=C(Nc1ccc(F)cc1)Nc1cc(OCC(F)(F)F)cc(OCC(F)(F)F)c1,active: 6.51 µM
7,CC(C)C[C@@H](CN1CCCC1CN1C(=S)NC[C@@H]1Cc1ccc(O)cc1)N1C[C@H](Cc2ccc(O)cc2)N(CCc2ccccc2)C1=S (some centres undefined),active: 14.6 µM
8,COc1ccc(C(=O)NCCN(C)C)c2nc3ccccc3cc12,active: 10.3 µM
9,Oc1ccccc1-c1n[nH]c(-c2ccccc2O)n1,"inconclusive: 3.26 µM [inhibitor, full curve]"
10,COc1ccc(CC(=O)Nc2ccccc2NC(=O)c2ccco2)cc1OC,inactive
11,NC(=S)N=Nc1c(O)n(CCCl)c2ccc(Br)cc12,inactive
12,CC(Nc1nc(-c2ccc(Cl)cc2)cs1)c1nc2cc(Cl)c(N3CCCCC3)cc2n1CCOCCO (centres undefined),"inconclusive: 18.4 µM [inhibitor, single point]"
13,CC(=O)c1ccc(-c2cnc3c(NC=O)cc(-c4ccccc4Oc4ccccc4)cn23)cc1,"inconclusive: 29.1 µM [inhibitor, single point]"
14,CCCc1cc(-c2[nH]ncc2-c2ccc(C(=O)OCC)o2)c(O)cc1O,inactive
15,CC(=O)Nc1ccc(S(=O)(=O)c2ccnc3cc(Cl)ccc23)cc1,active: 23.1 µM
16,O=C(NCc1ccccc1)C1=C[C@H](c2ccc(C(F)(F)F)cc2)C[C@H](OCc2ccc(CO)cc2)O1,"inconclusive: 29.1 µM [inhibitor, single point]"
17,Cc1cccc(CN2CCCC(C(=O)c3ccc4c5c(cccc35)CC4)C2)n1 (centres undefined),"inconclusive: 20.6 µM [inhibitor, partial curve, poor fit]"
18,C/C(=N\NC(=O)c1ccccc1OCCOc1ccccc1)c1ccccc1F,"inconclusive: 20.6 µM [inhibitor, single point]"
19,O=C(Oc1ccc(Cl)c2cccnc12)c1ccco1,inactive
20,COc1ccc([C@H]2CC(=O)C=C(/C=C/c3ccccc3)C2)cc1OC,"inconclusive: 23.1 µM [inhibitor, single point]"
21,CCc1nc(Nc2ccncc2)c2oc3ccccc3c2n1,active: 11.6 µM
22,Cc1ccc2nc3c(c(Nc4ccc5c(c4)OCCO5)c2c1)CCC3,"inconclusive: 29.1 µM [inhibitor, single point]"

row,SMILES,Potency
1,CN(C)c1ccc(C2CNC(c3ccc(Cl)c([N+](=O)[O-])c3)c3[nH]c4ccccc4c32)cc1 (centres undefined),"inconclusive: 18.4 µM [inhibitor, single point]"
2,COc1ccc2cc([C@H](C)C(=O)N(C)Cc3ccccc3N3CCCC3)ccc2c1,active: 8.2 µM
3,CCOC(=O)c1cc([N+](=O)[O-])sc1NC(=O)c1ccc(S(=O)(=O)N2CC3(C)CC2CC(C)(C)C3)cc1 (centres undefined),"inconclusive: 0.461 µM [inhibitor, full curve]"
4,Cc1ccc(NCCC(=O)c2cccc([N+](=O)[O-])c2)cc1,active: 23.1 µM
5,CCN(CC)C(=O)[C@H]1CC(CC(=O)NCc2cccc(C(F)(F)F)c2)C(=O)N2CCc3c([nH]c4ccccc34)[C@]12C (some centres undefined),active: 20.6 µM
6,O=c1cc(NS(=O)(=O)c2ccccc2)nc(SCc2ccc(Cl)cc2)[nH]1,"inconclusive: 25.9 µM [inhibitor, single point]"
7,C=CCNc1ncnc2c1[nH]c1ccc(C)cc12,"inconclusive: 10.3 µM [inhibitor, partial curve]"
8,O=C(OC(C(=O)Nc1cc(Cl)cc(Cl)c1)c1ccccc1)C1=COCCO1 (centres undefined),"inconclusive: 29.1 µM [inhibitor, single point]"
9,COc1cc(C(=O)NCC(c2ccc(F)cc2)N2CCOCC2)ccc1OCc1ccccc1Cl (centres undefined),"inconclusive: 25.9 µM [inhibitor, single point]"
10,CCCCCCCN(c1ccccc1)[C@@H]1C[C@H]2CCCC(=O)N3CC[C@@H](C1)[C@@H]23,"inconclusive: 18.4 µM [inhibitor, single point]"
11,C[C@H](CO)N1C[C@H](C)[C@@H](CN(C)S(=O)(=O)c2ccc(Cl)cc2)Oc2ccc(NS(=O)(=O)c3ccccc3)cc2CC1=O,"inconclusive: 29.1 µM [inhibitor, single point]"
12,O=C(Nc1ccc([N+](=O)[O-])cc1)Nc1ccc(Cl)cc1F,"inconclusive: 6.51 µM [inhibitor, full curve]"
13,COc1ccc(C(=O)/C=C/C(=O)N(Cc2ccc(F)cc2)C(C(=O)NC2CCCCC2)c2ccncc2)c(O)c1 (centres undefined),"inconclusive: 18.4 µM [inhibitor, single point]"
14,CCC(C)Sc1ccc([C@@H]2[C@@H]3C(=O)N(CC)C(=O)[C@@H]3[C@]3(C(=O)OC)CCCCN23)cc1OC (some centres undefined),"inconclusive: 29.1 µM [inhibitor, single point]"
15,CC1(C(=O)NCC2CCCCC2)CCN1C(=O)Cc1ccc(-c2ccccc2)cc1 (centres undefined),inactive
16,CN(Cc1ccccc1)C(=O)c1[nH]cnc1C(=O)Nc1cccc(Cl)c1,"inconclusive: 16.4 µM [inhibitor, single point]"
17,O=[N+]([O-])c1ccc(S(=O)(=O)c2cccc(C(F)(F)F)c2)nc1,active: 3.66 µM
18,O=C(CCC(=O)c1ccc(F)cc1)Nc1cccc(S(=O)(=O)Nc2cccc(Cl)c2)c1,"inconclusive: 29.1 µM [inhibitor, single point]"
19,Cc1cc(OCCCC(=O)Nc2cccc(-n3cnnn3)c2)ccc1Cl,"inconclusive: 29.1 µM [inhibitor, single point]"
20,CCOC(=O)C1=CCN(S(=O)(=O)c2ccccc2F)C1c1cccc(Cl)c1 (centres undefined),"inconclusive: 18.4 µM [inhibitor, partial curve, poor fit]"

# Filtered by structure, those above with a tert-butyl group
row,SMILES,Potency
14,CC(C)(C)OC(=O)N1CCC(NC(=O)c2[nH]cnc2C(=O)Nc2ccccc2)CC1,"inconclusive: 20.6 µM [inhibitor, single point]"
2,CC(C)C[C@H](NC(=O)c1nc[nH]c1C(=O)N1CCN(c2ccccc2)CC1)C(=O)OC(C)(C)C,inactive
